## Screening data, single-dose tests

Protein sequences, listed by entry. Tags and fused reporters are not part of them. Residues count along the entry.
UniProt P9WPC5, whole entry: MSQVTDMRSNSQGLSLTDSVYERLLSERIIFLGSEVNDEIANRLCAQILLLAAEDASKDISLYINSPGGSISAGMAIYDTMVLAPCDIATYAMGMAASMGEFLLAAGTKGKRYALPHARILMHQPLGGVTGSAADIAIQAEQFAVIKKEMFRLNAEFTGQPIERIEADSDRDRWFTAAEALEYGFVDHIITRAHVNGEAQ
UniProt P9WPC3, whole entry partner: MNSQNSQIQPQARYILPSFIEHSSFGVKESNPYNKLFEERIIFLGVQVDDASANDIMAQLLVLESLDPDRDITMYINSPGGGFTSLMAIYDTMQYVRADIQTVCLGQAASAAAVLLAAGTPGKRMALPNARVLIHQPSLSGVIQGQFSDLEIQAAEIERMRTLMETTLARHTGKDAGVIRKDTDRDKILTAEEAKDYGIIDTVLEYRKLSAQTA
UniProt Q8IDJ8, 1-583: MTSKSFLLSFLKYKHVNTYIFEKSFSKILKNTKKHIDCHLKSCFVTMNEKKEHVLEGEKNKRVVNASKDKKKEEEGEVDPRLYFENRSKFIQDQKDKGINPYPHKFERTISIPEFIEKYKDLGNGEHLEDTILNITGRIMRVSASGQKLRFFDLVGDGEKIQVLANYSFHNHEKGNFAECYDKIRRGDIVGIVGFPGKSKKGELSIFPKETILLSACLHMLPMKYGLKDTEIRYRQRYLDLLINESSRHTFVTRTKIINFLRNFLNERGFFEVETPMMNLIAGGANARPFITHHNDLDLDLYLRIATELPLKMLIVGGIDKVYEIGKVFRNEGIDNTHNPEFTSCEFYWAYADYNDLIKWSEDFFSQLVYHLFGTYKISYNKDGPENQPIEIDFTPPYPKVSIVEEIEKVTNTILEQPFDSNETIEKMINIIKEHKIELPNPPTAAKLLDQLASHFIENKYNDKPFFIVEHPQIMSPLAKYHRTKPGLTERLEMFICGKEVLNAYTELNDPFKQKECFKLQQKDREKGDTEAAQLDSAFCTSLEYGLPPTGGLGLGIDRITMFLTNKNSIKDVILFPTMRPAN
UniProt P9WFT3, whole entry: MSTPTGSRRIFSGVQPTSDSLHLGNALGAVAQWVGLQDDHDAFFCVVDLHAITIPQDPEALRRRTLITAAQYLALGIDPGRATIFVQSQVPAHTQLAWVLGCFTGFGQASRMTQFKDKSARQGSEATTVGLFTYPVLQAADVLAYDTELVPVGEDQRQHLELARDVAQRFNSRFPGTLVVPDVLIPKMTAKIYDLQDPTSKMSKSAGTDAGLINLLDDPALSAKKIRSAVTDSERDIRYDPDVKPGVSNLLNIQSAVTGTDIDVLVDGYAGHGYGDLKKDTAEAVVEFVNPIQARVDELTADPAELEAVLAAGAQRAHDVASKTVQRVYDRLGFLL
UniProt A4I591, 1-473: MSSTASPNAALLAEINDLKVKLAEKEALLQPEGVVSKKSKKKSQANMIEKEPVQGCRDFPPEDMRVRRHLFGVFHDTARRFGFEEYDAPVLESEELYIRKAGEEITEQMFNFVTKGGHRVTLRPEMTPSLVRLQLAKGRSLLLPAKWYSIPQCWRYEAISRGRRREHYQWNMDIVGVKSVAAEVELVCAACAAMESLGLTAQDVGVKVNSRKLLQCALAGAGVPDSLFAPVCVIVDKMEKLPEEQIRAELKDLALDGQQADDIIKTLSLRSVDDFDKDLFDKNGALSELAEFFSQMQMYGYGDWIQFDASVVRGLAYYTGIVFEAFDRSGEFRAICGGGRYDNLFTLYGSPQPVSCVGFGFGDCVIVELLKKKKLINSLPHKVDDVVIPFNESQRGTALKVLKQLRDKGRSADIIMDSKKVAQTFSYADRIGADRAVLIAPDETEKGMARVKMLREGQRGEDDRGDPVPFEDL
UniProt Q4DA54, 1-478: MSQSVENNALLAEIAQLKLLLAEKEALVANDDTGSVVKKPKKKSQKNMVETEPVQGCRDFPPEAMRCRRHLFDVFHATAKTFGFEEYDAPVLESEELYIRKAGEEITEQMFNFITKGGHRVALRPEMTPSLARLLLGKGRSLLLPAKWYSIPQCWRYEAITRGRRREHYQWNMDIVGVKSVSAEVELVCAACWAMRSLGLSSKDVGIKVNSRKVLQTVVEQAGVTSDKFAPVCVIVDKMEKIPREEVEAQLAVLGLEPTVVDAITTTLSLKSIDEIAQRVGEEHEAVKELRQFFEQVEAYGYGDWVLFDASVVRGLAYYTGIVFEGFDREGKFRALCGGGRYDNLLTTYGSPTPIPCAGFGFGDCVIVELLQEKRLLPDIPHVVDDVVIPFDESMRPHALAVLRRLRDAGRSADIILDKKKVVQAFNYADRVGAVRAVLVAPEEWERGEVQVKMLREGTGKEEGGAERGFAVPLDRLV

Source: ChEMBL document CHEMBL3988442, “University of Dundee, Small-Polar-MMV Screening Library” (2021).

A: 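ClpP1P2, Mycobacterium tuberculosis (UniProt P9WPC5 and UniProt P9WPC3). Protease assay of ClpP1P2, read by the AMC dye that it sets free. Tested at 50 µM. Higher reads as stronger inhibition, judged from the few compounds that gave an IC50. Most other retested compounds had strongly negative values. Size under these conditions: about 69,000 compounds, about 10 of them at 50% or above in at least one test.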
B: 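Enzyme assay of the cytosolic lysyl-tRNA synthetase in 384-well plates, read by luminescence. Target: Lysine-tRNA ligase, Plasmodium falciparum 3D7 (UniProt Q8IDJ8). Compounds at 30 µM. Direction is inferred from only a few compounds that gave an IC50; most scored high, so higher reads as stronger inhibition. Size under these conditions: about 69,000 compounds, about 49 of them at 50% or above in at least one test.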
C: 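Enzyme assay of tryptophanyl-tRNA synthetase; the read-out is not stated. Target: Tryptophan-tRNA ligase, Mycobacterium tuberculosis (UniProt P9WFT3). Concentration: 10 µM. Direction is not recorded; retested compounds ran higher, which suggests that high means inhibition. Of about 65,000 compounds tested this way, about 64 (0.098%) reached 50% or more in at least one test.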
D: 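Histidine-tRNA ligase, Leishmania infantum (UniProt A4I591). Enzyme assay of histidyl-tRNA synthetase; the read-out is not stated. Tested at 30 µM. The record gives no direction; compounds that gave an IC50 in retests scored well above the rest, so higher reads as stronger inhibition. The assay is labelled LdHisRS but filed under L. infantum. Size under these conditions: about 69,000 compounds, about 410 of them at 50% or above in at least one test.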
E: 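Enzyme assay of histidyl-tRNA synthetase; the read-out is not stated. Target: Histidine-tRNA ligase, Trypanosoma cruzi CL Brener (UniProt Q4DA54). Concentration: 30 µM. The record gives no direction; compounds that gave an IC50 in retests scored well above the rest, so higher reads as stronger inhibition. Size under these conditions: about 69,000 compounds, about 31 of them at 50% or above in at least one test.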
F: 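Cell assay of Leishmania donovani living inside macrophages; the read-out is not stated. Compounds at 30 µM. The record gives no direction; compounds that gave an IC50 in retests scored well above the rest, so higher reads as stronger inhibition. About 69,000 compounds were tested under these conditions; 1.5% (about 1,000) showed 50% or more at least once.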

Values are the deposited “Percent Effect”, in %.
The record does not define 0% and 100%; most values in the screen are far below 50% and negative numbers occur (in some assays of this library far below -100).
This is an unselected part of the compounds tested.
Two or more numbers in one place are separate tests of the same structure; such repeats can differ widely.
A dash means the value is not listed here; it may have been measured.

Result for CCc1nc(C(=O)N2CCN(C)CC2)nn1-c1ccccc1Cl was A: 19.33%; B: -1.336%; C: 7.13%; D: 14.91%; E: 2.89%; F: -1.403%. With c1cc(COC[C@]23COC[C@H]2CN(CC2CCC2)C3)ccn1 the screen gave A: 5.653%; B: 4.116%; C: 4.202%; D: 10.09%; E: 7.563%. Fc1cccc(N2CCCC3(CN(Cc4ccccn4)CCO3)C2)c1.O=C(O)C(F)(F)F.O=C(O)C(F)(F)F.O=C(O)C(F)(F)F (stereo unspecified) read F: 50.49% & 37.54%. CN(C(=O)Cn1nc(-c2ccccc2F)ccc1=O)C1CCS(=O)(=O)C1 (stereo unspecified) read A: -10.29%; B: -1.237%; C: 0.07003%; D: 21.05%; E: -1.754%; F: 18.08%. With [H][C@@]12CCCO[C@]1([H])[C@H](N(C)Cc1cccnc1)CN2C(=O)c1ccco1 the screen gave F: 18.1%. COC[C@H]1CCC[C@]12CN(CCc1ccccc1)CCO2 gave A: 2.796%; B: 12.79%; C: -1.608%; D: 13.59%; E: -2.732%. For CCN(C(=O)c1nc2c(s1)CCCN2C)C(C)C the result was A: -1.621%; B: 12.44%; D: 21.15%; E: 17.32%; F: 11.75%. With O=C(c1cnc(C2CC2)nc1)N1CCCC(c2nccs2)C1 (stereo unspecified) the screen gave A: 26.18%; B: -0.2278%; C: 10.94%; D: -4.317%; E: -0.3831%; F: 22.74%.

With COCCC1COC2(CCN(C(=O)C3CCCC3)CC2)C1 (stereo unspecified) the screen gave A: 4.573%; B: 2.19%; C: -2.885%; D: 10.53%; E: 10.34%; F: -1.929%. With CC1CCCN(Cc2c(C3CC3)n(CC(=O)N(C)C)c3ncccc23)C1.Cl (stereo unspecified) the screen gave F: -29.13%. CC(=O)Nc1ccc(CNCc2ccc(CS(C)(=O)=O)cc2)cc1 gave A: 4.576%; B: -4.487%; C: 12.35%; D: 13.51%; E: -1.667%; F: -8.046%. Result for CCc1onc(C)c1C(=O)N1CCC(c2cc3ncccc3cn2)CC1 was A: -9.776%; B: 2.435%; C: -7.942%; D: -3.158%; E: 0%; F: -3.108% & -0.5947%. For CCOc1ccc(Cl)cc1C(C(=O)O)N1CCOCC1 (stereo unspecified) the result was A: -5.567%; B: 12.44%; C: 0.315%; D: 1.639%; E: 5.051%; F: 26.6%. With c1ccc(Cc2nnc(CN3CCCCC3Cn3cncn3)o2)cc1 (stereo unspecified) the screen gave A: -10.14%; B: 0.9873%; C: -0.0684%; D: 8.929%; E: 0.5814%; F: 12.26%. Result for O=C(Nc1ccc(CCN2CCSCC2)cc1)NC1CC1 was A: 4.654%; B: 5.514%; C: -2.385%; D: 16.44%; E: 3.279%; F: 23.68%. For Cc1ccccc1C(=O)Nc1ccc(OC2CCN(C)CC2)cc1 the result was A: -14.93%; B: 1.287%; C: 1.957%; D: 8.8%; E: -5.528%; F: 13.71%.

Result for O=S(=O)(c1ccc(-c2cnco2)cc1)N1CCC2(CCCNC2)C1 (stereo unspecified) was A: -5.653%; B: 4.237%; C: 1.188%; D: 17.07%; E: 4.327%; F: 16.78%. With CCN(Cc1cccc(C(=O)Nc2cn(C)nn2)c1)[C@H]1COC[C@@H]1O the screen gave A: 0.9472%; B: 1.278%; C: -1.001%; D: 16.42%; E: 0%; F: 2.627%. For COc1cnc(CN2CCN(CC(C)C)C(=O)C2C)cc1O (stereo unspecified) the result was A: -9.334%; B: 1.896%; C: 3.59%; D: 21.51%; E: 8.642%; F: 12.95%. Result for CCCOCC(=O)Nc1ncc(I)cc1C was A: -9.138%; B: 9.399%; C: -0.6686%; D: 10.96%; E: 1.053%; F: 12.97%. With Cc1ccc(Oc2ncccc2C(=O)N(C)CCCN(C)C)c(C)c1 the screen gave A: -3.134%; B: 2.886%; D: 15.84%; E: 9.091%; F: 30.92%. For Cc1nc(CN2CCN(C(C)c3nc(C(C)C)no3)CC2)oc1C (stereo unspecified) the result was A: -31.2%; B: 2.548%; C: -5.304%; D: 14.68%; E: 7.647%; F: 25.04%.

Some entries from above, unchanged:

| SMILES | A | B | C | D | E | F |
|---|---|---|---|---|---|---|
| `CCCOCC(=O)Nc1ncc(I)cc1C` | -9.138% | 9.399% | -0.6686% | 10.96% | 1.053% | 12.97% |
| `COC[C@H]1CCC[C@]12CN(CCc1ccccc1)CCO2` | 2.796% | 12.79% | -1.608% | 13.59% | -2.732% | - |